Screening data

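Luminescence from an EWS-FLI1 target-promoter (NR0B1) reporter, set against a CMV-promoter reporter, two days after silencing single genes in TC32 Ewing sarcoma cells. Each siRNA was applied at 20 nM. A z-score of the log NR0B1-over-CMV signal, less the median of siRNAs with the same seed; more negative means a stronger specific loss of the NR0B1 reporter.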

The strongest results of the screen are mostly left out here. Sequences are the guide (antisense) strand, without overhang.

{"strand": "UCUCUAACCUGAUUAUUAG", "gene": "RBSN", "seed-corrected z-score": "0.1713"}
{"strand": "AAACUUGUAAUUCACUCUC", "gene": "ESRP1", "seed-corrected z-score": "-0.122"}
{"strand": "UUCGUUAAGUACUCAGAUG", "gene": "CNOT2", "seed-corrected z-score": "1.292"}
{"strand": "UAUAUCUUGAAUGACAAUC", "gene": "CMBL", "seed-corrected z-score": "0.4199"}
{"strand": "UGAUAUAUUGCAUCUACGG", "gene": "OSBPL9", "seed-corrected z-score": "-0.3182"}
{"strand": "UCUCCCACAAUGUUGAGGG", "gene": "NDE1", "seed-corrected z-score": "0.4543"}
{"strand": "UUGGGUCUCCUGGUGAAGC", "gene": "RPL18AP4", "seed-corrected z-score": "-0.6785"}
{"strand": "AAAAGUGACCCGACCACCU", "gene": "TGFBR3L", "seed-corrected z-score": "0.6703"}
{"strand": "UAAUGAUCCUGUACAAUGG", "gene": "WDR27", "seed-corrected z-score": "-1.036"}
{"strand": "UGACUAUCGCUUCAAAUGC", "gene": "DNM3", "seed-corrected z-score": "0.03143"}
{"strand": "UCUCGCUCCAUUAUCAAAG", "gene": "PILRA", "seed-corrected z-score": "0.07093"}
{"strand": "UUCAUGUCUGGAUUGAUUU", "gene": "ADGRE5", "seed-corrected z-score": "-0.537"}
{"strand": "UCCUUGGAACUGAACAUGG", "gene": "CORO1A", "seed-corrected z-score": "-0.2324"}
{"strand": "UCCAAAGUCUGAUAGGUCU", "gene": "VWC2", "seed-corrected z-score": "0.2711"}
{"strand": "UCAGCUGCAAUAACAUGAU", "gene": "CTSG", "seed-corrected z-score": "-0.8538"}
{"strand": "UGAGCAUUUACACUGGAUU", "gene": "LRRC75B", "seed-corrected z-score": "0.1144"}
{"strand": "UGACUUAUAUUUCUCCUGG", "gene": "ZNF627", "seed-corrected z-score": "-0.6597"}
{"strand": "AGACCAACAACAGUCACUG", "gene": "PKD1L3", "seed-corrected z-score": "0.3665"}
{"strand": "AUAAUCUCCACAGUAUCGG", "gene": "SH3BGRL2", "seed-corrected z-score": "1.424"}
{"strand": "UGUAGAUAAAGUUAUGCGG", "gene": "FBXW12", "seed-corrected z-score": "0.7345"}
{"strand": "AACCUUAACCUGGAAGCCG", "gene": "C4A", "seed-corrected z-score": "0.6106"}
{"strand": "UCAGGUUGUCGCACCUUCG", "gene": "KLRG2", "seed-corrected z-score": "-0.04445"}
{"strand": "AAACUUGAUGGGUUUUACG", "gene": "B3GALNT1", "seed-corrected z-score": "0.0345"}
{"strand": "UUUUAUCCAACAUAUACUC", "gene": "TRAM1", "seed-corrected z-score": "0.637"}
{"strand": "AGGUUAACCAUCUCUUGCC", "gene": "LURAP1L", "seed-corrected z-score": "-0.3487"}
{"strand": "UGAAUUAGAACUCAAACUC", "gene": "ZNF619", "seed-corrected z-score": "0.1632"}
{"strand": "UUGCUGACUAGUAACUCCC", "gene": "OR1A2", "seed-corrected z-score": "0.6293"}
{"strand": "UAAGAAAUGAAAACCAGAC", "gene": "OR10J1", "seed-corrected z-score": "0.702"}
{"strand": "UAGGAGCUCAGCAUCGUGG", "gene": "RNF112", "seed-corrected z-score": "0.2181"}
{"strand": "UCCGAUCCUUUGAAGAUCC", "gene": "PKN2", "seed-corrected z-score": "-0.09838"}
{"strand": "AAACGUAAAAUCUUCUAAG", "gene": "SCN3A", "seed-corrected z-score": "-0.1634"}
{"strand": "AACUGAGUAACAGUGCUGC", "gene": "GLRA3", "seed-corrected z-score": "-1.389"}
{"strand": "UUAAUGGUUACGAGAAGUG", "gene": "DEPDC5", "seed-corrected z-score": "0.6776"}
{"strand": "UUGAUUCAACGCGUCGUGG", "gene": "IFNA10", "seed-corrected z-score": "0.4149"}
{"strand": "UAUGGGAUGACAGACCUGU", "gene": "UCN2", "seed-corrected z-score": "-0.8573"}

Data taken from PubChem BioAssay AID1159506, deposited by NCATS (2015).